Laboratory results reported in patent US20170189504A1, “NOVEL PEPTIDES AND COMBINATION OF PEPTIDES FOR USE IN IMMUNOTHERAPY AGAINST VARIOUS CANCERS” (immatics biotechnologies GmbH, priority 2015, published 2017).
For some of these results: Expression values are those of the mRNA of the gene that encodes the peptide; a gene is named only where it was looked up.

Columns and labels:
HLA-A*24 = assay: Identification and relative LC-MS quantitation of HLA-A*24-presented tumor-associated peptides on tissue samples (presentation profiles, Tables 14A, 14B, 16, FIG. 1); parameters: species or system human; key to Presentation score GC / Presentation score NSCLC / Presentation score PCA / Presentation score GB / Presentation score HCC / Presentation score RCC: specifically presented on tumors (++++); very highly over-presented on tumors compared to a panel of normal tissues (+++); highly over-presented on tumors compared to a panel of normal tissues (++); over-presented on tumors compared to a panel of normal tissues (+); details: for Presentation score GB: glioblastoma (N = 18) vs panel of normal tissues (N = 70)
source genes (mRNA) [1] = assay: Gene and exon expression of source genes, TCGA tumor samples compared with normal tissue samples (Lonsdale, 2013) (Table 17); parameters: species or system human; details: for Over-expression category of source gene (target coverage), ESCA: ESCA = Esophageal cancer (N = 185); for Over-expression category of source gene (target coverage), GBM: GBM = Glioblastoma multiforme (N = 169); for Over-expression category of source gene (target coverage), LGG: LGG = Lower grade glioma (N = 534); for Over-expression category of source gene (target coverage), LUSC: LUSC = Lung squamous cell carcinoma (N = 503); for Over-expression category of source gene (target coverage), SKCM: SKCM = Skin cutaneous melanoma (N = 473)
source genes (mRNA) [2] = assay: Expression profiling of source genes by in-house RNASeq of tumor and normal tissues (Table 18, FIG. 2); parameters: species or system human; key: very highly over-expressed in tumors compared to a panel of normal tissues (+++); highly over-expressed in tumors compared to a panel of normal tissues (++); over-expressed in tumors compared to a panel of normal tissues (+); details: source gene of peptide; for Expression score GB: glioblastoma (N = 24) vs panel of normal tissues

191: peptide found in PTPRZ1 (gene looked up) (VFKASKITF; listed as Homo sapiens) [compound 191]
Presentation score GB (HLA-A*24; HLA-A*24 peptides): ++++ | Over-expression category of source gene (target coverage), ESCA (source genes (mRNA) [1]; same cutoff): C (>=5% of tumors above the cutoff, but <20%) | Over-expression category of source gene (target coverage), GBM (source genes (mRNA) [1]; same cutoff): A (>=50% of tumors above the cutoff) | Over-expression category of source gene (target coverage), LGG (source genes (mRNA) [1]; same cutoff): A (>=50% of tumors above the cutoff) | Over-expression category of source gene (target coverage), LUSC (source genes (mRNA) [1]; same cutoff): C (>=5% of tumors above the cutoff, but <20%) | Over-expression category of source gene (target coverage), SKCM (source genes (mRNA) [1]; same cutoff): C (>=5% of tumors above the cutoff, but <20%) | Expression score GB (source genes (mRNA) [2]): +++

170: peptide found in EMC1 (gene looked up) (VYEDQVGKF; listed as Homo sapiens) [compound 170]
Presentation score GB (HLA-A*24; HLA-A*24 peptides): ++++ | Presentation score NSCLC (HLA-A*24; HLA-A*24 peptides, non-small cell lung cancer (N = 91) vs panel of normal tissues (N = 70)): ++++ | Peptide Presentation on cancer entities (HLA-A*24; Table 14A, HLA-A*24-binding tumor-associated peptides, cancer entities on which the peptide was found presented): GB, NSCLC | Over-expression category of source gene (target coverage), BLCA (source genes (mRNA) [1]; BLCA = Bladder urothelial carcinoma (N = 408), same cutoff): A (>=50% of tumors above the cutoff) | Over-expression category of source gene (target coverage), BRCA (source genes (mRNA) [1]; BRCA = Breast cancer (N = 1104), tumors more than 2-fold above highest 75% percentile of normal tissues): A (>=50% of tumors above the cutoff) | Over-expression category of source gene (target coverage), CHOL (source genes (mRNA) [1]; CHOL = Cholangiocarcinoma (N = 36), same cutoff): B (>= 20% of tumors above the cutoff, but <50%) | Over-expression category of source gene (target coverage), COAD (source genes (mRNA) [1]; COAD = Colon and rectal adenocarcinoma (N = 462), same cutoff): A (>=50% of tumors above the cutoff) | Over-expression category of source gene (target coverage), DLBC (source genes (mRNA) [1]; DLBC = Lymphoid neoplasm diffuse large B-cell lymphoma (N = 48), same cutoff): B (>= 20% of tumors above the cutoff, but <50%) | Over-expression category of source gene (target coverage), ESCA (source genes (mRNA) [1]; same cutoff): A (>=50% of tumors above the cutoff) | Over-expression category of source gene (target coverage), GBM (source genes (mRNA) [1]; same cutoff): A (>=50% of tumors above the cutoff) | Over-expression category of source gene (target coverage), KICH (source genes (mRNA) [1]; KICH = Kidney chromophobe (N = 66), same cutoff): C (>=5% of tumors above the cutoff, but <20%) | Over-expression category of source gene (target coverage), KIRC (source genes (mRNA) [1]; KIRC = Clear cell kidney carcinoma (N = 534), same cutoff): A (>=50% of tumors above the cutoff) | Over-expression category of source gene (target coverage), KIRP (source genes (mRNA) [1]; KIRP = Papillary kidney carcinoma (N = 291), same cutoff): B (>= 20% of tumors above the cutoff, but <50%) | Over-expression category of source gene (target coverage), LAML (source genes (mRNA) [1]; LAML = Acute Myeloid Leukemia (N = 173), same cutoff): A (>=50% of tumors above the cutoff) | Over-expression category of source gene (target coverage), LGG (source genes (mRNA) [1]; same cutoff): A (>=50% of tumors above the cutoff) | Over-expression category of source gene (target coverage), LIHC (source genes (mRNA) [1]; LIHC = Liver hepatocellular carcinoma (N = 374), same cutoff): B (>= 20% of tumors above the cutoff, but <50%) | Over-expression category of source gene (target coverage), LUAD (source genes (mRNA) [1]; LUAD = Lung adenocarcinoma (N = 517), same cutoff): A (>=50% of tumors above the cutoff) | Over-expression category of source gene (target coverage), LUSC (source genes (mRNA) [1]; same cutoff): A (>=50% of tumors above the cutoff) | Over-expression category of source gene (target coverage), OV (source genes (mRNA) [1]; OV = Ovarian serous cystadenocarcinoma (N = 309), same cutoff): A (>=50% of tumors above the cutoff) | Over-expression category of source gene (target coverage), PAAD (source genes (mRNA) [1]; PAAD = Pancreatic ductal adenocarcinoma (N = 179), same cutoff): A (>=50% of tumors above the cutoff) | Over-expression category of source gene (target coverage), PRAD (source genes (mRNA) [1]; PRAD = Prostate adenocarcinoma (N = 498), same cutoff): A (>=50% of tumors above the cutoff) | Over-expression category of source gene (target coverage), READ (source genes (mRNA) [1]; READ = Colon and rectal adenocarcinoma (N = 167), same cutoff): A (>=50% of tumors above the cutoff) | Over-expression category of source gene (target coverage), SKCM (source genes (mRNA) [1]; same cutoff): A (>=50% of tumors above the cutoff) | Over-expression category of source gene (target coverage), STAD (source genes (mRNA) [1]; STAD = Stomach adenocarcinoma (N = 415), same cutoff): A (>=50% of tumors above the cutoff) | Over-expression category of source gene (target coverage), UCEC (source genes (mRNA) [1]; UCEC = Uterine corpus endometrial carcinoma (N = 546), same cutoff): A (>=50% of tumors above the cutoff) | Expression score OSCAR (source genes (mRNA) [2]; esophageal cancer incl. gastric-esophageal junction (N = 11) vs panel of normal tissues): + | Expression score GB (source genes (mRNA) [2]): + | Expression score NSCLC (source genes (mRNA) [2]; non-small cell lung cancer (N = 11) vs panel of normal tissues): + | Expression score OC (source genes (mRNA) [2]; ovarian cancer (N = 12) vs panel of normal tissues): + | Expression score UBC (source genes (mRNA) [2]; urinary bladder cancer (N = 10) vs panel of normal tissues): +
